Source: PubChem BioAssay AID686938 (Drosophila RNAi Screening Center, 2013)
In all, the deposit lists about 23,000 reagents; this is an unselected part of those that have a named target and a result. Of all reagents, 75 (0.33%) got an active call. 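Raw plate signals without normalisation; calls rest on plate z-scores that were not deposited; ratio present for only 364 wells.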 The numbers tell different reagents against one gene apart. A plus sign joins genes that one reagent is predicted to hit. The record does not give: the dose of the treatment.

Screen: 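Fly genes required for calcium entry once internal stores are emptied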 (primary screen)
Cells: Drosophila S2R+ cells
Knock-down reagent: long dsRNA against Drosophila genes, about 0.25 µg dsRNA per well, roughly 10,000 cells
Time to read-out: 5 days of knock-down before the calcium assay
Conditions: thapsigargin (SERCA pump blocker) to empty calcium stores; entry signal taken 4 min after adding it
Read-out: 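Duplicate raw fluo-4 intensities per well from a plate reader, at rest and four minutes after thapsigargin emptied calcium stores; entry-to-rest ratio filled for only some wells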
Direction: calcium entry signal: higher = stronger calcium signal after store depletion; entry to resting ratio: higher = more calcium entry relative to resting level; resting calcium signal: higher = higher resting calcium signal
Units: calcium entry signal in fluorescence units; resting calcium signal in fluorescence units
Rule for the call: 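Hit if the duplicate-averaged plate z-score for entry over resting signal is under −3; wells with weak total dye signal (Fmax z < −2) or more than 5 off-targets removed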
Meaning of the calls: active = strongly reduced calcium entry; inactive = no strong reduction

CG18789 scored calcium entry signal, replicate 1 = 3.26e7; calcium entry signal, replicate 2 = 2.53e7; resting calcium signal, replicate 1 = 1.51e7; resting calcium signal, replicate 2 = 1.13e7; inactive. After knock-down of Or85e, the record shows calcium entry signal, replicate 1 = 3.96e7; calcium entry signal, replicate 2 = 3.58e7; resting calcium signal, replicate 1 = 1.67e7; resting calcium signal, replicate 2 = 1.43e7; inactive. Knock-down of Pop5 resulted in: calcium entry signal, replicate 1 = 2.84e7; calcium entry signal, replicate 2 = 5.61e7; resting calcium signal, replicate 1 = 1.49e7; resting calcium signal, replicate 2 = 2.14e7; inactive. scu showed calcium entry signal, replicate 1 = 3.36e7; calcium entry signal, replicate 2 = 3.39e7; resting calcium signal, replicate 1 = 1.70e7; resting calcium signal, replicate 2 = 1.58e7; inactive. After knock-down of Dh44-R1 the results were calcium entry signal, replicate 1 = 3.78e7; calcium entry signal, replicate 2 = 4.21e7; resting calcium signal, replicate 1 = 1.60e7; resting calcium signal, replicate 2 = 1.91e7; inactive. After knock-down of CG9664, the record shows calcium entry signal, replicate 1 = 4.32e7; resting calcium signal, replicate 1 = 2.47e7; inactive.

For Nup58, the values are calcium entry signal, replicate 1 = 3.22e7; calcium entry signal, replicate 2 = 2.84e7; resting calcium signal, replicate 1 = 6.60e7; resting calcium signal, replicate 2 = 1.40e7; inactive. Knock-down of CG11360 #1 resulted in: calcium entry signal, replicate 1 = 4.19e7; calcium entry signal, replicate 2 = 4.15e7; resting calcium signal, replicate 1 = 1.92e7; resting calcium signal, replicate 2 = 1.66e7; inactive. CG11360 #2 scored calcium entry signal, replicate 1 = 4.31e7; calcium entry signal, replicate 2 = 5.83e7; entry to resting ratio 2; resting calcium signal, replicate 1 = 2.18e7; resting calcium signal, replicate 2 = 2.44e7; inactive. With knock-down of Uba1 the results were calcium entry signal, replicate 1 = 2.53e7; calcium entry signal, replicate 2 = 2.51e7; resting calcium signal, replicate 1 = 1.59e7; resting calcium signal, replicate 2 = 1.71e7; inactive. CG32318 + Klp61F + Psf1 showed calcium entry signal, replicate 1 = 1.59e7; calcium entry signal, replicate 2 = 4.09e7; resting calcium signal, replicate 1 = 1.02e7; resting calcium signal, replicate 2 = 2.29e7; inactive. CG30496 scored calcium entry signal, replicate 1 = 3.92e7; calcium entry signal, replicate 2 = 2.35e7; resting calcium signal, replicate 1 = 1.65e7; resting calcium signal, replicate 2 = 1.19e7; inactive.

Against mRpL55 the deposit lists calcium entry signal, replicate 1 = 2.61e7; calcium entry signal, replicate 2 = 3.83e7; resting calcium signal, replicate 1 = 3.92e7; resting calcium signal, replicate 2 = 1.35e7; inactive. For CG6574, the values are calcium entry signal, replicate 1 = 3.59e7; calcium entry signal, replicate 2 = 3.30e7; resting calcium signal, replicate 1 = 1.69e7; resting calcium signal, replicate 2 = 1.74e7; inactive. With knock-down of Mtch, the screen gave calcium entry signal, replicate 1 = 4.08e7; calcium entry signal, replicate 2 = 3.40e7; resting calcium signal, replicate 1 = 1.90e7; resting calcium signal, replicate 2 = 1.75e7; inactive. CG4198 scored calcium entry signal, replicate 1 = 2.10e7; calcium entry signal, replicate 2 = 2.94e7; resting calcium signal, replicate 1 = 1.21e7; resting calcium signal, replicate 2 = 1.44e7; inactive. Against Arl6, the entry reads calcium entry signal, replicate 1 = 4.36e7; calcium entry signal, replicate 2 = 4.36e7; resting calcium signal, replicate 1 = 1.95e7; resting calcium signal, replicate 2 = 2.15e7; inactive. Silencing of Grl36b resulted in: calcium entry signal, replicate 1 = 3.14e7; calcium entry signal, replicate 2 = 3.76e7; resting calcium signal, replicate 1 = 1.77e7; resting calcium signal, replicate 2 = 1.83e7; inactive.

2 consecutive entries already listed:
Arl6 — calcium entry signal, replicate 1: 4.36e7; calcium entry signal, replicate 2: 4.36e7; resting calcium signal, replicate 1: 1.95e7; resting calcium signal, replicate 2: 2.15e7; Call: inactive
Grl36b — calcium entry signal, replicate 1: 3.14e7; calcium entry signal, replicate 2: 3.76e7; resting calcium signal, replicate 1: 1.77e7; resting calcium signal, replicate 2: 1.83e7; Call: inactive

Continued:
For Cks30A the deposit lists calcium entry signal, replicate 1 = 4.77e7; resting calcium signal, replicate 1 = 2.01e7; inactive. With knock-down of B9d1 the results were calcium entry signal, replicate 1 = 2.29e7; calcium entry signal, replicate 2 = 2.65e7; resting calcium signal, replicate 1 = 1.18e7; resting calcium signal, replicate 2 = 3.70e7; inactive. CG9360 gave calcium entry signal, replicate 1 = 3.37e7; calcium entry signal, replicate 2 = 3.85e7; resting calcium signal, replicate 1 = 1.69e7; resting calcium signal, replicate 2 = 1.85e7; inactive. With knock-down of Fdx1 the results were calcium entry signal, replicate 1 = 2.43e7; calcium entry signal, replicate 2 = 3.83e7; resting calcium signal, replicate 1 = 1.25e7; resting calcium signal, replicate 2 = 1.50e7; inactive. For PIG-K, the values are calcium entry signal, replicate 1 = 3.81e7; calcium entry signal, replicate 2 = 6.24e7; entry to resting ratio 2.1; resting calcium signal, replicate 1 = 1.79e7; resting calcium signal, replicate 2 = 2.19e7; inactive. Pcp scored calcium entry signal, replicate 1 = 3.57e7; calcium entry signal, replicate 2 = 3.74e7; resting calcium signal, replicate 1 = 1.78e7; resting calcium signal, replicate 2 = 1.82e7; inactive.

Depletion of CG15536 #1 gave: calcium entry signal, replicate 1 = 2.89e7; calcium entry signal, replicate 2 = 4.08e7; resting calcium signal, replicate 1 = 1.63e7; resting calcium signal, replicate 2 = 1.99e7; inactive. For CG15536 #2, the entry reads calcium entry signal, replicate 1 = 2.91e7; calcium entry signal, replicate 2 = 4.53e7; resting calcium signal, replicate 1 = 1.50e7; resting calcium signal, replicate 2 = 1.90e7; inactive. For MetRS, the entry reads calcium entry signal, replicate 1 = 3.56e7; calcium entry signal, replicate 2 = 2.66e7; resting calcium signal, replicate 1 = 1.73e7; resting calcium signal, replicate 2 = 1.20e7; inactive.
